According to patent US10161932B2, “Azetidine-substituted fluorescent compounds” (HOWARD HUGHES MEDICAL INSTITUTE, priority 2014, dated 2018):

What was measured:
Type in all cases: cell-based
[1] = tested on: HaloTag-H2B; assay: dSTORM imaging of fixed U2OS cells expressing HaloTag-H2B; conditions: fixed U2OS cell
[2] = tested on: HaloTag-tubulin; assay: dSTORM imaging of live HeLa cells expressing HaloTag-tubulin; conditions: live HeLa cell
[3] = tested on: HaloTag-H2B; assay: Single-molecule imaging of labeled HaloTag-H2B (brightness, track length); conditions: ligand <50 nM

SMILES	mean localization error [1] [nm]	median localization error (σ) [1] [nm]	mean localization error [2] [nm]	median localization error (σ) ([2]; listed as JF646-HaloTag ligand) [nm]	median localization error (σ) ([2]; listed as JF646 ligand) [nm]	mean track length (photostability) [3] [s]
C[Si]1(C)C2=CC(=[N+]3CCC3)C=CC2=C(c2cc(C(=O)NCCOCCOCCCCCCCl)ccc2C(=O)[O-])c2ccc(N3CCC3)cc21 [Example 35, 4-((2-(2-((6-Chlorohexyl)oxy)ethoxy)ethyl)carbamoyl)-2-(3,7-di(azetidin-1-yl)-5,5-dimethyldibenzo[b,e]silin-10-ylium-10(5H)-yl)benzoate]	11.1	8.4	9.23	7.14	7.1	–
O=C(NCCOCCOCCCCCCCl)c1ccc(C(=O)[O-])c(-c2c3ccc(=[N+]4CCC4)cc-3oc3cc(N4CCC4)ccc23)c1 [Example 21, 4-((2-(2-((6-Chlorohexyl)oxy)ethoxy)ethyl)carbamoyl)-2-(3,6-di(azetidin-1-yl)xanthylium-9-yl)benzoate]	17.2	14.1	–	–	–	1.6
